Literature values, collected in US9682037B2, “Non-mucoadhesive film dosage forms” (APR APPLIED PHARMA RESEARCH S.A., priority 2006, dated 2017).

## COc1cc2c(cc1OC)C(=O)C(CC1CCN(Cc3ccccc3)CC1)C2.Cl (racemic) [Donepezil HCl, (±) 2,3-dihydro-5,6-dimethoxy-2-[[1-(phenylmethyl)-4-piperidinyl]methyl]-1H-inden-1-one hydrochloride]
In vivo
  Absolute Bioavailability: Absolute Bioavailability = ca. 100%
  Tmax: Tmax = 3-4 Hours hours
Result in words
  Effect of food on absorption: Neither food nor time of administration
  Linearity / dose proportionality of pharmacokinetics: Linear Pharmacokinetics over 1-10 mg dose
